Results reported in article PMC3206951.
Results are given in words; binding and its absence hold for the method and conditions named. Binding seen in cells or lysates may run through a third protein. Some results given as binding are weak or reduced against the parent protein; the word gives no strength. Where a sequence is shown, tags or fusion partners need not be part of it. Blank lines part the entries; values can stand above or below the molecule they belong to.

By UniProt entry, the sequences of proteins in these tests, tags left out.
UniProt P54647: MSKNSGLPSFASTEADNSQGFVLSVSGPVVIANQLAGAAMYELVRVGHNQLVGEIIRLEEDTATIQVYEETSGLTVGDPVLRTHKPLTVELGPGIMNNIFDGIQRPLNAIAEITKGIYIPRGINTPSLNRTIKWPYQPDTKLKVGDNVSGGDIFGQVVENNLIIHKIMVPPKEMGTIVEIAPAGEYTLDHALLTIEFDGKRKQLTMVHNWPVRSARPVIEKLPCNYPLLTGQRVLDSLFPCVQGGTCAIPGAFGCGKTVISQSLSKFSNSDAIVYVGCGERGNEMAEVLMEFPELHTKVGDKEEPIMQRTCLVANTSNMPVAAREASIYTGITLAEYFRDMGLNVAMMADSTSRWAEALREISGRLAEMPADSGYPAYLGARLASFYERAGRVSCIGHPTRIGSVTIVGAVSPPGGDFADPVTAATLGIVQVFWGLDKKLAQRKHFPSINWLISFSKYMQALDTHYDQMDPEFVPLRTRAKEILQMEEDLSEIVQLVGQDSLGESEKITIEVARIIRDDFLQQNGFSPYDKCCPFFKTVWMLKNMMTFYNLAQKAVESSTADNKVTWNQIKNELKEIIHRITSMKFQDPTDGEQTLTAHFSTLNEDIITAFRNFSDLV

What was measured:
[1] = target: T1, GST-PIPK_(343 – 805) (GST-tagged PIPK domain of RpkA, residues 343 – 805) (D. discoideum) (UniProt Q86D86); assay: pull-down; GST, GST-PIPK(343-805) and GST-PIPK(370-828) incubated with a pre-cleared lysate of rpkA- cells expressing VatM-GFP; 50 mM Tris-HCl pH 7.4, 100 mM NaCl, 0.5% NP40; 3 h or overnight; Western blot with GFP-specific and VatA-specific mAbs; only the target purified
T1 sequence: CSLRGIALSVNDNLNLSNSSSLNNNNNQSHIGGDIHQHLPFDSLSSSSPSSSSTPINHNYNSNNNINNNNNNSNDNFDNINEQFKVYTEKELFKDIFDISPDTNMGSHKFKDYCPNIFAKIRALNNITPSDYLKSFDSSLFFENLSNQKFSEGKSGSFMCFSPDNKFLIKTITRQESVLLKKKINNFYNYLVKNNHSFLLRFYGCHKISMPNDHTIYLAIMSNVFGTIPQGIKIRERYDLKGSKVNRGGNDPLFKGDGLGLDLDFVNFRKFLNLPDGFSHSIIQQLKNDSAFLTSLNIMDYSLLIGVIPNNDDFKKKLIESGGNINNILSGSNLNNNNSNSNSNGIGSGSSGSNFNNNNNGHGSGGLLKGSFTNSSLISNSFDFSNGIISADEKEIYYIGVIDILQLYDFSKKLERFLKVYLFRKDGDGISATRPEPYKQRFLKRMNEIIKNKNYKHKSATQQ

[2] = target: T2, GST-PIPK_(370 – 828) (GST-tagged PIPK domain of RpkA, residues 370 – 828) (D. discoideum) (UniProt Q86D86); assay: as above
T2 sequence: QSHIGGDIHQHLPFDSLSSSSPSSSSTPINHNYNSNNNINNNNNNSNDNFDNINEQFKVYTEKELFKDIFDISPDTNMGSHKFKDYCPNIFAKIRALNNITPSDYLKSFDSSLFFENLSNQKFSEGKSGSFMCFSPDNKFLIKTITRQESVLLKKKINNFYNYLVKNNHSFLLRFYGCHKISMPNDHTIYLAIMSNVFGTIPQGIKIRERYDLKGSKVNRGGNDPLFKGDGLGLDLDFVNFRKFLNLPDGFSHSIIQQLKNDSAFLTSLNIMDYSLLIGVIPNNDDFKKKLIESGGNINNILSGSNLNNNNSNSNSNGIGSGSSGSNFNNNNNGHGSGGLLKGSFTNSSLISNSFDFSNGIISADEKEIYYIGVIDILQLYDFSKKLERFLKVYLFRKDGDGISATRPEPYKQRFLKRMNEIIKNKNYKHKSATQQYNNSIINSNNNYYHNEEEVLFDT

binding [1]: binds | binding [2]: binds
Molecule: VatA, subunit A of the vacuolar H+-ATPase (from UniProt P54647 1-618)

binding [1]: binds | binding [2]: binds
B1: VatM-GFP (membrane-spanning subunit of the V-ATPase complex, GFP-tagged) (protein, UniProt Q54E04 1-815)
chain: MSFLRPSIWRSSPMQMVQLFVQIEAAHDTVDELGKLGLIQFLDDNEHVNLFQRNFVNEVKRCDDMEKKLKFFEDQVKKEPKLQKLLPDNMLSVVDDDSQMDELEGRFDELESELKQVNANQETLQRNYNELIQLRHVLTKDSVFFQENPNLIEGEGHEHSARSPLLAEDQHVSEVAKQGVKLGFITGVMNTDKMPQFQRSLWRTTRGNNYVKDARIEEEIIDPQTGEETAKTVFIVFFQGERLQQKIKKICESFGANIYDCPDNSFERSNLLQKVTVRITDLYEVLQRSKDHKRQTLAGIVPRLYSWKKKVLLEKSIYHTMNLFDYDVGRKCLIAKGWTPKDKIEEIQLALRTATTRSGALVPSVLSIIKTEGSPPTHFETNKYTSSFQEIVNAYGIAHYREVNPAVLTIVTFPFLFGVMFGDVGHGALLLLSALGLISLEKKLAGKKLNELIQMPFDGRYVLFLMSLFSIYVGFIYNECFSIPMNIFGSQYNLNSTTGLYTYQHTDRVYPVGVDPLWKGAPNELVYYNSFKMKLSIIFGVVQMSVGICFSLLNYLNQKGPIKIVNILTQFVPQMIFLWSIFGYMSVLIILKWVVPYRSFEVDKVDPPFILPTIIAMFLSPGGTPDVVFFSGQGAVQTALLFLALISIPVMLVIKPLFMKRFHFQEVERKKLGHHEEEHDDEALYTGHHGEEFEMGEVFVHQVIHTIEFVLGAVSNTASYLRLWALSLAHSELSSVFWERILIGQVERGNPFLAFVGFGAWLGASVAVLLLMESLSAFLHALRLHWVEFQNKFYIGDGVRFIPYSATRILSEDDE
